# From PubChem BioAssay AID1347423 (Functional Genomics Laboratory (NCATS/FGL), 2020)
# Among all 52,000 sequences or so, about 210 (0.4%) were called active.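 How the source made its calls: active means gene whose silencing raises cell survival under the drug, median off-target-corrected z-score across its silencing RNAs 2 or more; inactive means the rest.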 The list shows a part of the results.
# Test: Resistance to Poly (ADP-Ribose) Polymerase inhibitor: Gene Identification via Genome-wide siRNA Screen
# Settings: mouse BRCA2 R2336H ES cells, olaparib, CellTiter-Glo viability; stronger effect = higher value
# Outline: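 Genome-wide siRNA screen (3 siRNAs/gene, 20 nM) in mouse ES cells carrying hypomorphic BRCA2 R2336H; olaparib 500 nM added 48 h post-transfection, CellTiter-Glo viability 72 h later. Normalized to plate-median negative control; MAD z-scores, gene median, seed-adjusted.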
row,Sequence,z-score
1,GGCUCCAAACAGAAUCUUGTT against Pmch,inactive: -0.455
2,GGGAUCAGAACAAGUAUAATT against Kns2,inactive: -2.38
3,CCAAAUGACUAGCACCAGUTT against Arl12,inactive: -1.19
4,GGAAAAAGUGACAAGCAAGTT against Svil,inactive: 0.21
5,GGCGAACUGAAGGAUAUGGTT against Anapc5,inactive: 0.0137
6,GAGCAAUGAGCAGAGAUUCTT against H2-D4,inactive: -0.409
7,GGUUCGAGUCUCUUACUCUTT against Pou4f3,inactive: 0.0715
8,GGCACCAAACUCAGCCUUATT against Csk,inactive: -1.25
9,GCAAACAUGUCAAGUCCGATT against Actl6b,inactive: 0.478
10,GGGCCAGAAUCCAAAUGCUTT against Tox,inactive: 0.536
11,CCCUUUUGUUUAGCUGAUCTT against Glrp1,inactive: 0.652
12,GCCUUCUGAUUCAUUUUCUTT against 1500034E06Rik,inactive: -0.0388
13,GGAAAUCAAGCUUUAGGGCTT against Myct1,inactive: -0.182
14,GGAAGAAGAAAGGCAGCUGTT against Parn,inactive: 2.06
15,GGUGGAGCCAUGUGCAUUGTT against Olfr1246,inactive: -2.14
16,GGAUAUGAAGGAAUAUGUGTT against Leng8,inactive: -1.48
17,GGAAGACAGAAAGUCAUUUTT against Chd1l,inactive: -0.169
18,GGACUUGGUGCACUGAAGUTT against 9430095K15Rik,inactive: -1.11
19,GGAAGAAGAAGUCUUACACTT against Rps27a,inactive: -2.75
20,CGAUUACUACAUAAUUGCCTT against Efnb3,inactive: -1.03
21,GCUUGAAUCUCCCAAGAUATT against Jmjd2c,inactive: 1.37
22,CCACCUACCCUUUGAGUGGTT against Slc7a12,inactive: 0.208
23,GGUUUGAGCUCUUUAUUUUTT against Cyp2j13,inactive: 0.00818
24,GCAGUAAUGUCCAGGGACATT against Akt2,inactive: 1.17
25,CCCAUUUGGAAUUAUUCCUTT against Arf4,inactive: 0.86
26,GGGAAGCUGAUUAUACAUUTT against Serpinf1,inactive: 1.67
27,GACCUAAGCUCAUUGACCUTT against V1rc5,inactive: 0.697

# 2 neighbouring entries already listed, quoted:
row,Sequence,z-score
18,GGACUUGGUGCACUGAAGUTT against 9430095K15Rik,inactive: -1.11
19,GGAAGAAGAAGUCUUACACTT against Rps27a,inactive: -2.75

# (continued)

row,Sequence,z-score
1,GCUUCUGUAAAUCCCAUAUTT against Olfr26,inactive: 3.13
2,GGUACAUUAUCGGAUACAUTT against BC043301,inactive: -0.542
3,GGAUAGUUGAAGUCCUAAATT against Il9,inactive: 1.38
4,GGAUUCGGACAAAACUACUTT against 2810013M15Rik,inactive: -1.4
5,GGAACUGCUGUACAGGUACTT against Mest,inactive: -0.0275
6,GGCAGCUUCUGUUCUUUUATT against Ube3c,inactive: 0.466
7,GGACCUGCCAAAAGUUGUGTT against Uqcrc1,inactive: -0.603
8,CCUGAUCCCAUGUAAAACATT against Sspn,inactive: -0.859
9,GGCUAUGACAAUGCCUACATT against Maged2,inactive: -0.707
10,GGGUUCAAGUCAGUGAUGUTT against Dnajb8,inactive: 0.105
11,CGGAGGGAAAUGACAUUGCTT against Acr,inactive: 0.505
12,GCUGUUCUGCCUCUAAGACTT against Zfp597,inactive: -0.178
13,GUGAAUGGUCAGAAGUUUGTT against Elk4,inactive: -0.01
14,GGCUAUCUGCUUAUGCUGGTT against Ptch2,inactive: -0.153
15,GGAAGUCUAUGUAGGUUCATT against Kif22,inactive: -1.58
16,GGUAUUAUCUGCAUGGGCATT against Mkrn3,inactive: -0.616
17,GGUUGUUGUUUCAGCAUCCTT against Mrpl18,inactive: 0.942
18,GGCCUCUAUCUUCCAACAATT against Pols,inactive: -0.878
19,GGUCGUUGUGUCUGAAUACTT against BC050188,inactive: -2.81
20,GGAAAUUGCCAAACAUUUUTT against BC030417,inactive: -0.933
21,CGAGCAUGCAUUCAAAGGATT against Lrrc3b,inactive: -0.0876
22,GGUCAUCUUAUUGAACUUCTT against Edg1,inactive: 0.117
23,GCCCAGAGAAUGACCUAUATT against 9130019O22Rik,inactive: -0.497
24,CCGACCUCAACUUCAACGATT against 4933428G20Rik,inactive: -0.0687
25,CGCAUGCACUGAAAUCUACTT against Pop7,inactive: -1.03
26,GGCCGCCAUUUUGGCAAGATT against Fbxo27,inactive: 1.32

# Laid out differently: entries from further up.
row	Sequence	z-score
3	GGAUAGUUGAAGUCCUAAATT against Il9	inactive: 1.38
4	GGAUUCGGACAAAACUACUTT against 2810013M15Rik	inactive: -1.4
